Article doi:10.1101/2023.08.04.551955

The chains behind the UniProt entries cited, without tags or fusion partners. Where a name states a change or a piece, a line headed by the entry shows the natural chain unless it says otherwise. A line that says so, or that is headed by a name, gives the form on record, which may keep a tag or linker.
UniProt P29067: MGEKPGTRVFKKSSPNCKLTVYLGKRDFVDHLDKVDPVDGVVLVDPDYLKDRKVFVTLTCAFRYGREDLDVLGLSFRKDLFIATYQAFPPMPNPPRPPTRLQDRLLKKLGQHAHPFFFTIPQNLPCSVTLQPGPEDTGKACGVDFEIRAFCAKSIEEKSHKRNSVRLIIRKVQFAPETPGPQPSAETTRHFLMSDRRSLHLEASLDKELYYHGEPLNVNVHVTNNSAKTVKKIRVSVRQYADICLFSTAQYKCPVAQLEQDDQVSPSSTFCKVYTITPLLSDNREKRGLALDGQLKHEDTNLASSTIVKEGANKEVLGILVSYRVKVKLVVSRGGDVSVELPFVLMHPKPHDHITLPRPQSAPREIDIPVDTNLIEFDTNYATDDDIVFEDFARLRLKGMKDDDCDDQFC
TurboID-tagged K2A-mutant rat β-arrestin2 (P29067, form named): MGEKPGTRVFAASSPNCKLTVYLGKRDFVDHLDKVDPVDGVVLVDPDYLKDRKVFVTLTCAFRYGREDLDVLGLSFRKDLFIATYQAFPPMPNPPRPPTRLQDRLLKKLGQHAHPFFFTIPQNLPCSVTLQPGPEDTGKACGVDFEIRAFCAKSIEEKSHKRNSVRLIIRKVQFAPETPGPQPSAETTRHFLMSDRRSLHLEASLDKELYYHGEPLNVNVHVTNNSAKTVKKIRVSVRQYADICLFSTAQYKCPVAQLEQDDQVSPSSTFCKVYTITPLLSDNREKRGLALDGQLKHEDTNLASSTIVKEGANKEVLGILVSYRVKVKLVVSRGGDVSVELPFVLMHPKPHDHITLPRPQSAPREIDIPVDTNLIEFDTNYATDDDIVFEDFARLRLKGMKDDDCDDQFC

B1: AT1R-Cterm–Venus (plasma membrane-targeted C-terminus of rat AT1a angiotensin receptor) (domain or fragment)
chain: MGCVCSSNPENNNNDPTRSRAQASNSGGGIPPKAKSHSSLSTKMSTLSYRPSDNMSSSAKKPASCFEVE
modifications: phosphorylation induced by PMA (PKC) in the cells; residues not given
B2: HIV Tat-specific factor 1, endogenous (protein, UniProt O43719 1-755)
chain: MSGTNLDGNDEFDEQLRMQELYGDGKDGDTQTDAGGEPDSLGQQPTDTPYEWDLDKKAWFPKITEDFIATYQANYGFSNDGASSSTANVEDVHARTAEEPPQEKAPEPTDARKKGEKRKAESGWFHVEEDRNTNVYVSGLPPDITVDEFIQLMSKFGIIMRDPQTEEFKVKLYKDNQGNLKGDGLCCYLKRESVELALKLLDEDEIRGYKLHVEVAKFQLKGEYDASKKKKKCKDYKKKLSMQQKQLDWRPERRAGPSRMRHERVVIIKNMFHPMDFEDDPLVLNEIREDLRVECSKFGQIRKLLLFDRHPDGVASVSFRDPEEADYCIQTLDGRWFGGRQITAQAWDGTTDYQVEETSREREERLRGWEAFLNAPEANRGLRRSDSVSASERAGPSRARHFSEHPSTSKMNAQETATGMAFEEPIDEKKFEKTEDGGEFEEGASENNAKESSPEKEAEEGCPEKESEEGCPKRGFEGSCSQKESEEGNPVRGSEEDSPKKESKKKTLKNDCEENGLAKESEDDLNKESEEEVGPTKESEEDDSEKESDEDCSEKQSEDGSEREFEENGLEKDLDEEGSEKELHENVLDKELEENDSENSEFEDDGSEKVLDEEGSEREFDEDSDEKEEEEDTYEKVFDDESDEKEDEEYADEKGLEAADKKAEEGDADEKLFEESDDKEDEDADGKEVEDADEKLFEDDDSNEKLFDEEEDSSEKLFDDSDERGTLGGFGSVEEGPLSTGSSFILSSDDDDDDI

Key:
[1] = target: TurboID-tagged K2A-mutant rat β-arrestin2 (rat) (UniProt P29067); test: proximity labelling
[2] = target: TurboID-tagged wild-type rat β-arrestin2 (rat) (UniProt P29067); test: proximity labelling

| Binder | binding [1] | binding [2] |
| --- | --- | --- |
| B1 | no binding | binds |
| B2 |  | binds |

Results are given in words; binding and its absence hold for the method and conditions named. In cells and extracts the contact can be indirect. Here binding means that the protein was enriched with, or labelled near, the bait; the list need not be complete. For part of these data: A no says only that the protein was not detected with the bait.
